## Percent effect of library compounds

Source: ChEMBL document CHEMBL3988442, “University of Dundee, Small-Polar-MMV Screening Library” (2021).

Results are given as percent effect.
The controls that fix the scale are not given in the record; negative values are as filed.
This is an unselected part of the compounds tested.

Mtb glucose medium: 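Growth of Mycobacterium tuberculosis over 3 days (7H9 medium with glucose and tyloxapol); the read-out is not stated. Compounds at 500 µM. Higher reads as more growth inhibition (inferred: compounds with an IC50 in retests scored well above the rest). Size under these conditions: about 18,000 compounds, about 1,400 of them at 50% or above in at least one test.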
Mtb cholesterol medium: 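Phenotypic screen: M. tuberculosis growth, cholesterol and DPPC medium, 4 days; the read-out is not stated. Compounds at 500 µM. Direction is inferred from retests: higher values go with more growth inhibition. About 18,000 compounds were tested under these conditions; 5% (about 900) showed 50% or more at least once.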

CC1CCCN(C2=NS(=O)(=O)c3ccccc32)C1 (stereo unspecified) read Mtb glucose medium: -5.311%; Mtb cholesterol medium: 0.5353%. For CC(C)C(=O)N1CCC(C(=O)c2ccc(O)cc2)CC1 the result was Mtb glucose medium: 66.13%; Mtb cholesterol medium: 35.85%. For CCN(CC)c1ncccc1CNC(=O)C1CCC1 the result was Mtb glucose medium: 26.68%; Mtb cholesterol medium: 13%. For Cc1ccc(S(=O)(=O)N[C@@H]2CCOC[C@H]2O)s1 the result was Mtb glucose medium: 13.73%; Mtb cholesterol medium: -4.309%.

O=C(NCC(O)c1c(F)cccc1F)c1cc(Br)c[nH]1 (stereo unspecified) read Mtb glucose medium: -1.526%; Mtb cholesterol medium: -17.34%. With COC(=O)CNc1ccc2ccn(C)c(=O)c2c1 the screen gave Mtb glucose medium: 13.02%; Mtb cholesterol medium: 5.949%. Result for CCc1noc(C)c1C(=O)NCC(C)(O)c1ccco1 (stereo unspecified) was Mtb glucose medium: 24.86%; Mtb cholesterol medium: 8.094%. For CC(=O)N1CCN(Cc2ccc(Br)o2)CC1 the result was Mtb glucose medium: 15.15%; Mtb cholesterol medium: -3.784%.

For Cc1ccc2c(c1)OCCN2C(=O)c1nccnc1N the result was Mtb glucose medium: 49.3%; Mtb cholesterol medium: 35.81%. CN(C)CCNC(=O)c1cc(F)cc(F)c1 read Mtb glucose medium: 5.362%; Mtb cholesterol medium: 3.447%. For N#Cc1c(N2C(=O)C=CC2=O)sc2c1CCCC2 the result was Mtb glucose medium: 2.449%; Mtb cholesterol medium: -0.4977%. O=C(NCc1cc(Br)cs1)N1CCC(O)CC1 read Mtb glucose medium: 34.76%; Mtb cholesterol medium: 16.25%.

With CNC(=O)CSc1nnnn1-c1ccc(C(C)C)cc1 the screen gave Mtb glucose medium: 74.54%; Mtb cholesterol medium: 69.16%. C[C@@H]1CN(C(=O)c2cn(CCN)nn2)C[C@]1(C)O read Mtb glucose medium: 11.31%; Mtb cholesterol medium: -1.048%. COc1ccccc1CNC(=O)N1CCC(O)CC1 read Mtb glucose medium: 11.28%; Mtb cholesterol medium: 9.141%. Result for CCc1ncc(CN(C)C(=O)c2nccnc2N)s1 was Mtb glucose medium: 36.26%; Mtb cholesterol medium: 13.82%.

With CNC(=O)NC(=O)CCCN(C)Cc1ccsc1 the screen gave Mtb glucose medium: -2.422%; Mtb cholesterol medium: -11.01%. CCNC(=O)C(C)N (stereo unspecified) gave Mtb glucose medium: 5.209%; Mtb cholesterol medium: 13.03%. CCN1CC2(CCN(CCC(C)SC)CC2)OC1=O (stereo unspecified) gave Mtb glucose medium: 2.686%; Mtb cholesterol medium: 0.3722%. For CNC(=O)C(NC)c1ccc(Cl)cc1 (stereo unspecified) the result was Mtb glucose medium: 12.43%; Mtb cholesterol medium: 4.575%.

For CSCC(=O)NCCc1ccc(S(C)(=O)=O)cc1 the result was Mtb glucose medium: -12.25%; Mtb cholesterol medium: -10.56%. For COc1ccc(OC)c(N2C(=O)CCC2=O)c1 the result was Mtb glucose medium: -1.394%; Mtb cholesterol medium: 2.636%. For CCc1ccc(C(=O)N(CC)C2CCS(=O)(=O)C2)cc1 (stereo unspecified) the result was Mtb glucose medium: 39.44%; Mtb cholesterol medium: 27.91%. For CNc1nnc(SCc2ncc(C)o2)s1 the result was Mtb glucose medium: 20.61%; Mtb cholesterol medium: -6.006%.

With OCc1cc(-c2ccncc2)n[nH]1 the screen gave Mtb glucose medium: -0.6912%; Mtb cholesterol medium: -3.338%. Cc1noc(Cn2c(=O)c(I)cn(C)c2=O)n1 read Mtb glucose medium: -9.078%; Mtb cholesterol medium: -9.775%. CC1(c2ccc(F)cc2)CNC(=O)O1 (stereo unspecified) gave Mtb glucose medium: 27.64%; Mtb cholesterol medium: 11.62%. With COCCC1(CO)CCCN(CCCSC)C1 (stereo unspecified) the screen gave Mtb glucose medium: -5.719%; Mtb cholesterol medium: -1.805%.

O=C(Nc1cccs1)NC1(CCO)CCC1 read Mtb glucose medium: -3.304%; Mtb cholesterol medium: -10.17%. For Cn1nccc1CNS(=O)(=O)c1cc(Cl)cnc1N the result was Mtb glucose medium: 13.49%; Mtb cholesterol medium: -7.791%. Result for CN1CCC(N(C)C(=O)C2CC2)CC1 was Mtb glucose medium: -9.215%; Mtb cholesterol medium: -11.21%. CN(C)CC(C)(C)CNc1cc([C@H]2C[C@@H](N)C2)ncn1 gave Mtb glucose medium: -7.328%; Mtb cholesterol medium: -4.325%.

C1CC(C2CCOC2)CCN1 (stereo unspecified) gave Mtb glucose medium: -16.6%; Mtb cholesterol medium: -15.13%. Cc1cc(CC(C)NC(=O)CCn2nnnc2C)[nH]n1 (stereo unspecified) gave Mtb glucose medium: 6.723%; Mtb cholesterol medium: 2.516%. COCCNCc1cc(Cl)ccc1OCC(N)=O read Mtb glucose medium: 14.09%; Mtb cholesterol medium: 12.59%. Result for N#CC1(N)CCc2ccccc2C1 (stereo unspecified) was Mtb glucose medium: 17.27%; Mtb cholesterol medium: 14.89%.

With CC(C)NC(=O)NCC1(N2CCOCC2)CCSC1 (stereo unspecified) the screen gave Mtb glucose medium: 50.83%; Mtb cholesterol medium: 32.33%. CC(NC(=O)C(C)(C)C)c1ccc(S(C)(=O)=O)cc1 (stereo unspecified) gave Mtb glucose medium: 8.154%; Mtb cholesterol medium: 8.427%.

For reference, 4 entries once more:

compound,Mtb glucose medium,Mtb cholesterol medium
O=C(NCC(O)c1c(F)cccc1F)c1cc(Br)c[nH]1 (stereo unspecified),-1.526,-17.34
CCc1ncc(CN(C)C(=O)c2nccnc2N)s1,36.26,13.82
COCCC1(CO)CCCN(CCCSC)C1 (stereo unspecified),-5.719,-1.805
CNc1nnc(SCc2ncc(C)o2)s1,20.61,-6.006